# Among all 400,000 compounds or so, about 5,500 (1.4%) were called active. The inconclusive results got no clear call from the source; some entries with a clear call stand among them for comparison. Calls follow the shape of the dose curve; as a rule, active = well fitted cell-killing curve with a large enough effect; inconclusive = small, poorly fitted or top-dose-only effect, or effect the other way; inactive = flat fitted curve, though single readings scatter. Where the call is inconclusive, the potency comes from a doubtful curve fit.
# Test: qHTS assay for MDR1-selective chemotherapeutics: Primary screen using the parental adenocarcinoma cell KB-3-1; also: nearly all actives have a fitted effect of over 60% in size
# Conditions: KB-3-1 viability, CellTiter-Glo ATP luminescence, 72 h; activity change, negative = cytotoxic: at 46.1 µM (top of the series)
# Summary of the method: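 Multi-concentration cytotoxicity screen in KB-3-1 cells grown in DMEM lacking phenol red with 10% FBS. After 72 h at 37 °C with compound, ATP-dependent luminescence was recorded.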
# % is scaled to controls: 0 for no effect and ±100 for the full control effect; potency is read from the fitted curve at half-maximal effect.
SMILES,Potency,"activity change, negative = cytotoxic"
CC(C)c1cc(C(=O)NNC(=S)NC2CCCCC2)cs1,"inconclusive: 16.4 µM [cytotoxic, partial curve, poor fit]",
CCCCNc1nc(Cl)nc(Nc2ccc(C)cc2)n1,,inconclusive: -7.96%
CCCOc1ccc(C(=O)Nc2ccc3c(c2)OCO3)cc1,"inconclusive: 18.4 µM [cytotoxic, single point]",
COc1cc(CN2CCN(Cc3ccc([N+](=O)[O-])cc3)CC2)c([N+](=O)[O-])cc1OC,"inconclusive: 23.1 µM [cytotoxic, single point]",
COc1ccc(-c2cn3nc(N4CCC(C(=O)Nc5cc(Cl)ccc5C)CC4)sc3n2)cc1,inactive,
COc1cc(C(=O)N/N=C/c2sc(=O)n(-c3ccccc3)c2Cl)cc(OC)c1OC,"inconclusive: 20.6 µM [rising, single point]",
CC(=O)N1CCN(CC(=O)Nc2ccccc2Sc2ccc(Cl)cc2)CC1,"inconclusive: 20.6 µM [cytotoxic, single point]",
Cc1ccc(NC(=O)Cn2cnc3onc(-c4ccc(F)cc4)c3c2=O)c(Cl)c1,inactive,
CC(C)=NNc1ncnc2nc[nH]c12,"inconclusive: 16.4 µM [cytotoxic, single point]",
COc1ccc(/C=N/Nc2nc(Nc3ccccc3)nc(N3CCCCC3)n2)cc1OC,"inconclusive: 29.1 µM [cytotoxic, single point]",
C[C@H](CO)N1C[C@H](C)[C@@H](CN(C)C(=O)NC2CCCCC2)Oc2c(NC(=O)Nc3ccc(C(F)(F)F)cc3)cccc2C1=O,"inconclusive: 20.6 µM [cytotoxic, single point]",
CC1CCCCN1C(=O)COC(=O)c1ccc2ccccc2n1 (stereo not drawn),inactive,
Cc1onc(-c2ccccc2)c1C(=O)NC(=S)NNC(=O)c1ccccc1O,"inconclusive: 3.26 µM [cytotoxic, partial curve, poor fit]",
CC1CCC2C(=O)N(c3ccc(Cc4ccncc4)cc3)C(=O)C2C1 (stereo not drawn),active: 4.61 µM,
CC(C)NC(=O)c1onc(CSc2cccc3ccccc23)c1C(=O)O,"inconclusive: 18.4 µM [cytotoxic, single point]",
Cc1ccc(CN2C(=O)[C@@H]3Cc4c([nH]c5ccccc45)C(C)(C)N3C2=O)cc1,"inconclusive: 23.1 µM [cytotoxic, single point]",
CCc1ccc2[nH]c(=O)c(CN(Cc3ccccc3OC)C(=O)Nc3ccccc3OC)cc2c1,"inconclusive: 25.9 µM [cytotoxic, single point]",
CSc1cc(C)c(OCC(=O)Nc2c(C)nn(C)c2C)c(C)c1,"inconclusive: 29.1 µM [cytotoxic, single point]",
COc1cccc(CNC(=O)CSc2ccc(-c3ccccn3)nn2)c1,"inconclusive: 29.1 µM [cytotoxic, full curve, poor fit]",
CCOC(=O)c1c(Nc2ccc(OC)cc2)nnc(-c2ccccc2)c1-c1ccccc1,"inconclusive: 29.1 µM [cytotoxic, single point]",
Nc1cc(Cl)cc2c1-c1ccc(Cl)cc1C2O (stereo not drawn),"inconclusive: 29.1 µM [cytotoxic, single point]",
CC1CCCN(c2nc3ccccc3nc2C(C#N)S(=O)(=O)c2cccs2)C1 (stereo not drawn),inactive,
COc1ccc(-c2csc(=Nc3ccccc3)n2CCO)cc1F,"inconclusive: 32.6 µM [cytotoxic, single point]",

# Reformatted: 21 of the compounds above
SMILES | Potency | activity change, negative = cytotoxic
CCCCNc1nc(Cl)nc(Nc2ccc(C)cc2)n1 |  | inconclusive: -7.96%
CCCOc1ccc(C(=O)Nc2ccc3c(c2)OCO3)cc1 | inconclusive: 18.4 µM [cytotoxic, single point] | 
COc1cc(CN2CCN(Cc3ccc([N+](=O)[O-])cc3)CC2)c([N+](=O)[O-])cc1OC | inconclusive: 23.1 µM [cytotoxic, single point] | 
COc1ccc(-c2cn3nc(N4CCC(C(=O)Nc5cc(Cl)ccc5C)CC4)sc3n2)cc1 | inactive | 
COc1cc(C(=O)N/N=C/c2sc(=O)n(-c3ccccc3)c2Cl)cc(OC)c1OC | inconclusive: 20.6 µM [rising, single point] | 
CC(=O)N1CCN(CC(=O)Nc2ccccc2Sc2ccc(Cl)cc2)CC1 | inconclusive: 20.6 µM [cytotoxic, single point] | 
Cc1ccc(NC(=O)Cn2cnc3onc(-c4ccc(F)cc4)c3c2=O)c(Cl)c1 | inactive | 
CC(C)=NNc1ncnc2nc[nH]c12 | inconclusive: 16.4 µM [cytotoxic, single point] | 
COc1ccc(/C=N/Nc2nc(Nc3ccccc3)nc(N3CCCCC3)n2)cc1OC | inconclusive: 29.1 µM [cytotoxic, single point] | 
C[C@H](CO)N1C[C@H](C)[C@@H](CN(C)C(=O)NC2CCCCC2)Oc2c(NC(=O)Nc3ccc(C(F)(F)F)cc3)cccc2C1=O | inconclusive: 20.6 µM [cytotoxic, single point] | 
CC1CCCCN1C(=O)COC(=O)c1ccc2ccccc2n1 (stereo not drawn) | inactive | 
Cc1onc(-c2ccccc2)c1C(=O)NC(=S)NNC(=O)c1ccccc1O | inconclusive: 3.26 µM [cytotoxic, partial curve, poor fit] | 
CC1CCC2C(=O)N(c3ccc(Cc4ccncc4)cc3)C(=O)C2C1 (stereo not drawn) | active: 4.61 µM | 
CC(C)NC(=O)c1onc(CSc2cccc3ccccc23)c1C(=O)O | inconclusive: 18.4 µM [cytotoxic, single point] | 
Cc1ccc(CN2C(=O)[C@@H]3Cc4c([nH]c5ccccc45)C(C)(C)N3C2=O)cc1 | inconclusive: 23.1 µM [cytotoxic, single point] | 
CCc1ccc2[nH]c(=O)c(CN(Cc3ccccc3OC)C(=O)Nc3ccccc3OC)cc2c1 | inconclusive: 25.9 µM [cytotoxic, single point] | 
CSc1cc(C)c(OCC(=O)Nc2c(C)nn(C)c2C)c(C)c1 | inconclusive: 29.1 µM [cytotoxic, single point] | 
COc1cccc(CNC(=O)CSc2ccc(-c3ccccn3)nn2)c1 | inconclusive: 29.1 µM [cytotoxic, full curve, poor fit] | 
CCOC(=O)c1c(Nc2ccc(OC)cc2)nnc(-c2ccccc2)c1-c1ccccc1 | inconclusive: 29.1 µM [cytotoxic, single point] | 
Nc1cc(Cl)cc2c1-c1ccc(Cl)cc1C2O (stereo not drawn) | inconclusive: 29.1 µM [cytotoxic, single point] | 
CC1CCCN(c2nc3ccccc3nc2C(C#N)S(=O)(=O)c2cccs2)C1 (stereo not drawn) | inactive | 

# Next records follow:

SMILES,Potency,"activity change, negative = cytotoxic"
CC1CN(CCOc2ccccc2[N+](=O)[O-])CC(C)O1 (stereo not drawn),"inconclusive: 16.4 µM [cytotoxic, partial curve, poor fit]",
O=C(Nc1cc(Cl)ccc1Cl)c1cc([N+](=O)[O-])cc(Br)c1O,inactive,
O=C(NC(=S)NC1CCCc2ccccc21)c1ccc(F)cc1 (stereo not drawn),"inconclusive: 29.1 µM [cytotoxic, single point]",
CCOC(=O)CSc1ccc(-c2nc3cc(C)c(C)cc3[nH]2)cn1,inactive,
Cc1ccc(Cl)cc1Nc1nn2c(=O)c3ccc(C(=O)NCc4ccc(F)cc4)cc3nc2s1,inactive,
CCOC(=O)Cc1csc(NC(=O)CSc2nnc(-c3ccc(NS(=O)(=O)CC)cc3)o2)n1,inactive,
Cn1c(SCC(=O)Nc2ccccc2)nnc1-c1ccc(NC(=O)CCc2ccccc2)cc1,,inconclusive: 33.6%
COC(=O)c1ccccc1NC(=S)NC(=O)C1CCCCC1,inactive,
OC1COC(c2ccccc2)OC1C1OC(c2ccccc2)OCC1O (stereo not drawn),inactive,
O=C(COc1ccccc1)NNC(=S)NC(=O)c1ccccc1,inactive,
CCOc1ccccc1C(=O)N[C@H](C(=O)OCc1cc([N+](=O)[O-])cc2c1OCOC2)C(C)C,inactive,
O=C(CC(=O)c1ccccc1)Nc1cc(C(F)(F)F)ccc1Cl,inactive,
Cc1nc(C(=O)NNC(=O)c2ccc(C(F)(F)F)cc2)cs1,"inconclusive: 29.1 µM [cytotoxic, single point]",
CC(C)(C)n1nc2c(c1NC(=O)Cc1ccccc1)CS(=O)(=O)C2,inactive,
CN1CCN(Cc2cc(COCc3ccccc3)c3cccnc3c2O)CC1,"inconclusive: 20.6 µM [cytotoxic, partial curve, poor fit]",
COc1ccc(OC)c(CCNC(=O)CS(=O)(=O)Cc2nc(-c3ccccc3C)oc2C)c1,"inconclusive: 14.6 µM [cytotoxic, single point]",
O=C(c1ccc(Cl)c(S(=O)(=O)NCc2ccco2)c1)N1CCN(c2ccccc2F)CC1,"inconclusive: 29.1 µM [cytotoxic, single point]",
COC(=O)c1ccc(COc2ccc(C)c(C)c2)o1,,inconclusive: 6.32%
CCN(CC)CCNC(=O)c1c2c(nc3ccccc13)C(=O)N(C1CCCCC1)C2,,inconclusive: 32.4%
O=C(COc1ccc(Cl)cc1)N1CCN(S(=O)(=O)c2cc(F)ccc2F)CC1,"inconclusive: 29.1 µM [cytotoxic, partial curve, poor fit]",
CCCCCCCCN1[C@@H](CC(C)=O)c2cc(C(F)(F)F)ccc2S1(=O)=O,"inconclusive: 16.4 µM [cytotoxic, single point]",
COCCNC(=O)c1ccc(CS(=O)(=O)c2ccccc2)o1,inactive,
O[C@H]1C[C@H](c2ccc(Cl)cc2)N(CC2CCCCC2)C[C@@H]1n1cc(C2CC2)nn1,"inconclusive: 29.1 µM [cytotoxic, single point]",

SMILES,Potency,"activity change, negative = cytotoxic"
CCCn1c(=N)c(C(=O)NCC2CCCO2)cc2c(=O)n3cccc(C)c3nc21 (stereo not drawn),active: 20.6 µM,
CCOC(=O)CSc1nc2ccc(NC(=O)c3cccc(F)c3)cc2s1,"inconclusive: 29.1 µM [cytotoxic, single point]",
C#CCNC(=O)C1CCN(c2ccc(S(=O)(=O)N3CCOCC3)cc2Cl)CC1,"inconclusive: 20.6 µM [cytotoxic, single point]",
O=C(CCn1cccn1)Nc1ccc(Br)cc1F,inactive,
CCOC(=O)c1ccc(NC(=O)c2ccccc2N(C)S(=O)(=O)c2ccccc2)cc1,"inconclusive: 20.6 µM [cytotoxic, single point]",
Cc1cc(NCc2ccccc2)nc(-c2ccccc2O)n1,"inconclusive: 29.1 µM [cytotoxic, single point]",
COc1ccc(Cl)cc1C(=O)NNC(=O)CNC(=O)c1ccco1,inactive,
CCOc1ccc(NS(=O)(=O)c2ccc3[nH]c4c(c3c2)CCCCC4)cc1,"inconclusive: 29.1 µM [cytotoxic, single point]",
Cc1cccc(-n2ncc3c2CCCC3NC(=O)C2=CC(=O)CC(C)(C)O2)c1C (stereo not drawn),"inconclusive: 20.6 µM [cytotoxic, single point]",
Cc1cc(C)c(C(=O)c2ccc(C(=O)N(C(C)C)C(C)C)cc2)c(C)c1,"inconclusive: 20.6 µM [cytotoxic, single point]",
Cc1ccc(C)c(NS(=O)(=O)c2ccc3[nH]c(=O)[nH]c3c2)c1,inactive,
CC(C)c1ccc(COc2ccc(C(=O)N3CCOCC3)cc2)cc1,inactive,
Cc1ccc(S(=O)(=O)N2CCCCCC2)cc1[N+](=O)[O-],inactive,
CC1CCCN(CCCNS(=O)(=O)c2ccc3c(c2)CCN3C(=O)C2CC2)C1 (stereo not drawn),inactive,
CC(=O)N(C)c1ccc(NC(=O)Nc2ccc(C)cc2)cc1,"inconclusive: 29.1 µM [rising, single point]",
Cc1nnnn1/C(=C\c1ccccc1)C(=O)OCC(=O)Nc1cccc(S(=O)(=O)N(C)C)c1,"inconclusive: 20.6 µM [cytotoxic, single point]",
CCN1CCN(c2ccc(S(=O)(=O)N3CCCCC3)cc2NC(=O)c2ccc([N+](=O)[O-])s2)CC1,"inconclusive: 29.1 µM [cytotoxic, single point]",
C[C@@H](C(=O)NCCc1c[nH]c2ccccc12)[C@H]1C[C@]1(C)[C@H](NC(=O)OCc1ccccc1)c1ccccc1,active: 16.4 µM,
CCc1cc(CNC(=O)CC2C(=O)NCCN2CC2CCCCC2)on1 (stereo not drawn),"inconclusive: 29.1 µM [rising, single point]",
COc1cc2c(cc1OC)C(=O)N1[C@H]3c4cc(C)ccc4OC[C@@H]3[C@H](c3ccccc3)[C@]1(C)C(=O)N2,"inconclusive: 25.9 µM [cytotoxic, partial curve, poor fit]",
CCCCc1ccc(C2C3=C(CC(C)(C)CC3=O)NC3=C2C(=O)c2ccccc23)cc1 (stereo not drawn),"inconclusive: 16.4 µM [cytotoxic, partial curve, poor fit]",
CCOCCCn1c(=S)[nH]c2cc(C(=O)N3CCN(c4ccccc4)CC3)ccc2c1=O,"inconclusive: 4.11 µM [cytotoxic, partial curve, poor fit]",

# From PubChem BioAssay AID1347075 (National Center for Advancing Translational Sciences (NCATS), 2019)
